From patent US20220395522A1, “Methods of Use of Glucosamine for Increasing Nitrogen Retention” (TSI Bioproducts (Xuzhou) Co., Ltd., priority 2021, published 2022)

Assay: Self-reported food intake and physical activity logs in cross-over study
Assay type: in vivo, human
Conditions: GLU condition, Post 21 days, 3 x 1,000 mg/day oral; mean ± SD

Structure (SMILES): Cl.N[C@H]1C(O)O[C@H](CO)[C@@H](O)[C@@H]1O (some centres unmarked) [GLU, glucosamine hydrochloride]
- Carbohydrate intake: 189 ± 36 g/day
- Protein intake: 123 ± 46 g/day
